{
  "source": "patent US20080248012A1",
  "about": "“Erythrocyte Function Modifying Substance” (KEIO UNIVERSITY, priority 2004, published 2008)",
  "system": "human erythrocytes",
  "test": "ATP release from erythrocytes at adjusted oxygen / CO2 partial pressure, luciferin assay",
  "format": "cell-based",
  "conditions": "PO2 0-150 mmHg, 37° C., 5 min; bezafibrate 10^−4 mol/L (30 min); 100% CO gas 1 min; NO 0.5 equivalents to hemoglobin",
  "description": "Human peripheral blood sample (20 ml) was taken, heparinized and centrifuged at 2000 rpm for 7 minutes. The erythrocyte pellet was collected and washed. Then, an erythrocyte suspension (1×10^7 cells/ml) was prepared with Krebs buffer. A tightly sealed cuvette containing 1.8 ml of Krebs buffer in which oxygen concentration is adjusted at a desired level within a range of 0-150 mmHg was incubated at 37° C. A 200 μl aliquot of the erythrocyte suspension was injected into the tightly sealed cuvette with a microsyringe. After 5 minutes, the cuvette was placed in ice at 4° C. to terminate the reaction. A 200 μd sample was taken while it was still 4° C., and centrifuged. The ATP in the resultant supernatant was quantitatively determined by luciferin assay.\nIn this example, the effects of carbon monoxide-saturated erythrocytes (CO-Hb) and NO treated erythrocytes (αNO-Hb) on ATP release were examined. The method was as described in Example 1 above. In order to examine the effect of NO, an experiment was conducted using erythrocytes prepared as described below. […] The hemoglobin contained in the above erythrocytes is expressed as “αNO-Hb”. […]\nThe method used was according to the method in Example 1. The amounts of ATP release when erythrocytes were exposed to various CO2 partial pressures (PCO2) from 0 to 80 mmHg for 5 minutes were measured.",
  "note": "“Also recorded” adds a separate entry of the source. At least one structure is not confirmed: it was looked up by name or label, or the drawing left a doubt.",
  "data": [
    {"smiles": "CC(C)(Oc1ccc(CCNC(=O)c2ccc(Cl)cc2)cc1)C(=O)O", "note": "[bezafibrate]", "values": [
      {"measurement": "ATP release from erythrocytes in relation to oxygen partial pressure", "result": "constant ATP release at a high level; also recorded: released a large quantity of ATP even at normal oxygen concentration"}
    ]}
  ]
}
